From patent US6723897B2, “Methods for controlling gibberellin levels” (Monsanto Technology, LLC, priority 1998, dated 2004)
At least one compound was matched to its structure with a doubt left.

Tests used:
[1] = Particulate material present in solutions after mixing; format: physicochemical; conditions: for Particulate material present, 100X Diln w/water: 0.25 mg/ml compound in water; for Particulate material present, Initial Mixing: 25 mg/ml in absolute ethanol; for Particulate material present, O/N Incubation: 25 mg/ml in ethanol, overnight at room temperature, remixed
Procedure: Each of the compounds noted above is weighed to the nearest 0.1 mg in a pre-tarred 1.5-ml polypropylene vial with a screw-top lid. Absolute ethanol is added to the weighed powder to prepare a 25 mg/ml solution. Solutions are thoroughly mixed using a vortex mixer. A stainless steel spatula is used to crush any particulate material remaining after extensive mixing. Vials are left overnight at room temperature, and then remixed to form the concentrated ethanol stock solutions. The presence of undissolved material is noted throughout this procedure.

[2] = tested on: wild-type soybean line A4922; test: Field trial of seed coating application rates, wild-type soybean; conditions: 100 μg compound per seed
Procedure: GA3, GA3-3-acetate, GA5, GA9, and GA12 are evaluated in further field trials. […] The objectives of these tests are: 1) to determine if seed coatings, as compared to imbibition, of GA compounds facilitate rescue of constitutively GA-deficient transgenic dwarf soybeans (transgenic lines 719−2 plus 719+17) without causing elongation of wild-type soybeans (line A4922), and 2) to determine the seed treatment rate ranges for each of the selected GA compounds that would provide rescue of constitutively GA-deficient transgenic dwarf soybeans (transgenic lines 719−2 plus 719+17) without causing elongation of wild-type soybeans (line A4922).
Seeds are treated with GA3, GA5, GA9, GA12, and GA3-3-acetate at rates of 0, 0.1, 1, 10, and 100 μg/seed. These GA compounds are applied to the seeds using a Hege 11 seed treater (Hans-Ulrich Hege GmbH & Co., Waldenburg, Germany); 100% acetone is used as the carrier solvent. The amount of liquid introduced into the seed treater is six fluid ounces/100 lbs seed rate. In addition, GA12 is tested at 50 μg/seed. The untreated control (UTC) consisted of dry, untreated seeds. […]
In all the experiments reported in Tables 17-24, treatments are replicated three times in a randomized block design. Data are analyzed using LSD (least significant difference) 0.05 probability using the PRM 5.0 Statistical Analysis Program (SAS Institute, North Carolina).

Structure (SMILES) | Particulate material present, 100X Diln w/water [1] | Particulate material present, Initial Mixing [1] | Particulate material present, O/N Incubation [1] | A4922 Height, cm, Light soil [2]
C=C1C[C@]23C[C@H]1CC[C@H]2[C@@]12CC[C@H](O)[C@@](C)(C(=O)O1)[C@H]2[C@@H]3C(=O)O [GA4] | NO | NO | NO | 
C=C1C[C@]23C[C@@]1(O)CC[C@H]2[C@@]12CC=C[C@@](C)(C(=O)O1)[C@H]2[C@@H]3C(=O)O [GA5] | NO | NO | NO | 
C=C1C[C@]23C[C@@]1(O)CC[C@H]2[C@@]12CC[C@H](O)[C@@](C)(C(=O)O1)[C@H]2[C@@H]3C(=O)O [GA1] | NO | NO | NO | 
C=C1C[C@]23C[C@H]1CC[C@H]2[C@@]12CCC[C@@](C)(C(=O)O1)[C@H]2[C@@H]3C(=O)O [GA9] |  | NO | NO | 11 0 de cm
C=C1C[C@]23C[C@@]1(O)CC[C@H]2[C@@]12CCC[C@@](C)(C(=O)O1)[C@H]2[C@@H]3C(=O)O [GA20] | NO | NO | NO | 
